At least one structure is not confirmed: it was looked up by name or label, or the drawing left a doubt.
Assay: Release of retinoic acid from porous silica particles
Type: physicochemical
Conditions: loaded on positively charged particles of Example 2-(1)-2)(i), PBS (pH 7.4) containing 5% ethanol, 37° C.

Compound: CC1=C(/C=C/C(C)=C/C=C/C(C)=C/C(=O)O)C(C)(C)CCC1 [retinoic acid]
- release of retinoic acid (in words): very slowly released
- retinoic acid released (over 10 days): ~100%

From patent publication US12138346B2, “Physiologically active substance carrier” (LEMONEX INC., priority 2017, dated 2024)
